Earlier results, collected in patent US9329190B2 (The General Hospital Corporation, priority 2011, dated 2016).
Some of these results come from one statement about several compounds together.

Details: in circulation

Substance: 25-hydroxyvitamin D [25(OH)D]
- fraction of circulating hormone bound to albumin: 10-15%
- fraction of circulating hormone bound to vitamin D binding protein: 85-90%
- fraction of circulating hormone in free, unbound form: less than 1%
